Laboratory results from PMC9889916.
These are yes or no findings as the source states them, for the method shown. In cells and extracts the contact can be indirect. Some results given as binding are weak or reduced against the parent protein; the word gives no strength.

Amino acid sequences for entries named in this document (tags omitted). A change or cut given only in a name is not applied to a line headed by its entry. Chains listed by the source or under a name are the forms on record and can include a tag or linker. Residues count along the entry.
UniProt Q9Y6K9: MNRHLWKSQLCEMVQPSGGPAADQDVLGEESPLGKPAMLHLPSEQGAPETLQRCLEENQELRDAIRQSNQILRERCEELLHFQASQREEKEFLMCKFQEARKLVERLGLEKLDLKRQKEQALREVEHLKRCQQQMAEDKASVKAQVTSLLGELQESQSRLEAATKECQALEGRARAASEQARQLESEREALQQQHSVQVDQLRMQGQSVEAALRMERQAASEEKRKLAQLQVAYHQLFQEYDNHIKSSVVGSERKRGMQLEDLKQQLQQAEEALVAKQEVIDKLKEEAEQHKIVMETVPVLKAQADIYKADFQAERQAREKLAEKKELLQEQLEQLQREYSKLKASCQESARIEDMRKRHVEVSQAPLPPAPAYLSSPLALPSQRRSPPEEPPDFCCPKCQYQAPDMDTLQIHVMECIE
HA-tagged WT NEMO: residues 2-419 of Q9Y6K9
HA-tagged Q330X NEMO: residues 2-329 of Q9Y6K9
UniProt Q96EP0: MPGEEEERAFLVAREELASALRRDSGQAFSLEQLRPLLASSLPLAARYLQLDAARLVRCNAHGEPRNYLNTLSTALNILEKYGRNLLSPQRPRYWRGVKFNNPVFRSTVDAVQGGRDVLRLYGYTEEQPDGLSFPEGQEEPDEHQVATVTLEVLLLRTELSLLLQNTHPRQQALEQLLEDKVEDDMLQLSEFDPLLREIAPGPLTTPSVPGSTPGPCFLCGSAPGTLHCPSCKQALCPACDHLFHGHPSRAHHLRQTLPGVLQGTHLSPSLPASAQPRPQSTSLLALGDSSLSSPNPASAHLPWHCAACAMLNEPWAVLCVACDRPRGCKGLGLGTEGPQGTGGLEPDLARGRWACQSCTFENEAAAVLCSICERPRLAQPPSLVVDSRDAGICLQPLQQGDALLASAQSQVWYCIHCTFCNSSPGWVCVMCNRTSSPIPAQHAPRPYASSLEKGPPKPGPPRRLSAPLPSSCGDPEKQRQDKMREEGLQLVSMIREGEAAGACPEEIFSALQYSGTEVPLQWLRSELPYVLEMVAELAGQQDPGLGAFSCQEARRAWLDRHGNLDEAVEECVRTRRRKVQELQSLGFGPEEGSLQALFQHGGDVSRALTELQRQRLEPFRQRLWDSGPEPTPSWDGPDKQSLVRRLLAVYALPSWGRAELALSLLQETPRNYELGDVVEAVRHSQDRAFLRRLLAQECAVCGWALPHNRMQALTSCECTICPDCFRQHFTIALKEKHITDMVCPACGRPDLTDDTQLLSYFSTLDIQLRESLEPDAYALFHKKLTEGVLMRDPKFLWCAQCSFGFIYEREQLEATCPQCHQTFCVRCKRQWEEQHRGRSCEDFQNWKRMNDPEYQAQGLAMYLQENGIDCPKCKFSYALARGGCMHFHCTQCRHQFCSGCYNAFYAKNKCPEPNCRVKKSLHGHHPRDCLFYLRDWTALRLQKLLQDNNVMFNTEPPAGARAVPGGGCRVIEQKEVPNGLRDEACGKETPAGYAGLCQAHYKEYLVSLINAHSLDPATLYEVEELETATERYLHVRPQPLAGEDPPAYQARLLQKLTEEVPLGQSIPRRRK

Legend:
[1] = molecular target: HA-tagged Q330X NEMO (human) (UniProt Q9Y6K9); assay: co-IP; HA-tagged NEMO precipitated with anti-HA agarose beads (4 h, 4°C) from lysates of transfected HEK293T cells, stimulated with human IL-1β (25 ng/ml, 15 min) or left untreated; lysis and washes in 50 mM HEPES pH 7.4, 150 mM NaCl, 1% Triton, 10% glycerol, 30 mM NEM; immunoblot for IKKβ, HOIP and M1-ubiquitin
[2] = molecular target: HA-tagged WT NEMO (human) (UniProt Q9Y6K9); assay: as above

Substance: HOIP (HOIL-1-interacting protein or RNF31) (from UniProt Q96EP0 1-1072) (enzyme)
- binding [1]: no binding
- binding [2]: binds
